From patent US20220064301A1
No constants are given. Whether binding was seen depends on the method and setting. Some entries that bind do so weakly or less than the wild type.

Assays:
[1] = molecular target: cynoCTLA4-Fc (cynomolgus) (UniProt G7PL88); assay: SPR (Biacore), cynoCTLA4-Fc, series 2-32 nM
[2] = molecular target: cynoCTLA4-Fc (cynomolgus) (UniProt G7PL88); assay: SPR (FIG. 2E)
[3] = molecular target: cynoCTLA4-Fc (cynomolgus) (UniProt G7PL88); assay: SPR (FIG. 2E, 2F)

binding [1]: binds | binding [2]: binds | binding [3]: binds
B1: Antibody 2-Fab (a Fab of Antibody 2) (Fab, V domains shown)
VH: QVQLVQSGAEVKKPGSSVKVSCKASGYTFTNYFMNWVRQAPGQGLEWMGRVDPEQGRADYAEKFKKRVTITADKSTSTAYMELSSLRSEDTAVYYCARRAMDNYGFAYWGQGTLVTVSS
VL: EIVLTQSPDFQSVTPKEKVTITCSANSALSYMYWYQQKPDQSPKLWVHGTSNLASGVPSRFSGSGSGTDFTLTINSLEAEDAATYYCHHWSNTQWTFGGGTKVEIKR
